Drawing on paper PMC3284564, this text covers binding for 1 substance.

Protein sequences, listed by entry. Tags and fused reporters are not part of them. Residues count along the entry.
UniProt Q9QUK6, residues 26-835: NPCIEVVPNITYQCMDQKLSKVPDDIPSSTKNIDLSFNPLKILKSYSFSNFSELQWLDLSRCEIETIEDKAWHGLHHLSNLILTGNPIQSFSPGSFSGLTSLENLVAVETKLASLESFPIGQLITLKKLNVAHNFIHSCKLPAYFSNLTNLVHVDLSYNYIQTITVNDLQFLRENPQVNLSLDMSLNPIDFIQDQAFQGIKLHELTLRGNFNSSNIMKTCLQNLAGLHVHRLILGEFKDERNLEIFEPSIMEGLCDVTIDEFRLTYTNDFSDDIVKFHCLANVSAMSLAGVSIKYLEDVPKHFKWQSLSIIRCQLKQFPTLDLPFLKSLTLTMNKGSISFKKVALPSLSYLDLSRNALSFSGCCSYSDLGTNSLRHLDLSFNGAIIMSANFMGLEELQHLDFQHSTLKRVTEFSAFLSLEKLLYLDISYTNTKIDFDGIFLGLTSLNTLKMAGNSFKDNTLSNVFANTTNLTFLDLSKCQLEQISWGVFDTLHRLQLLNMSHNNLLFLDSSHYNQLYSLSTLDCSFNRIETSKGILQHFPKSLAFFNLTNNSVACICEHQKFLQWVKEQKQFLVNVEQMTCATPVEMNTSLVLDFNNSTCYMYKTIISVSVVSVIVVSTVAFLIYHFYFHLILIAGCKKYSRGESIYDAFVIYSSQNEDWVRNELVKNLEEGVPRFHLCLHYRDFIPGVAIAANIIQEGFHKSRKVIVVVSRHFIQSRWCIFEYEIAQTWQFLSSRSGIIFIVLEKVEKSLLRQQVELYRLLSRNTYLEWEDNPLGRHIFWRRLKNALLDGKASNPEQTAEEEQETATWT

For this assay, the target named is toll-like receptor-4 (TLR4) (UniProt Q9QUK6). Put plainly: co-IP; Ba/F3 cells stably expressing GFP-TLR4 and Flag-TLR4, incubated with media or mmLDL (50 µg/ml) for 15 min; lysates immunoprecipitated with an anti-GFP antibody, immunoblotted with anti-Flag and anti-GFP.

These are yes or no findings as the source states them, for the method shown. Binding seen in cells or lysates may run through a third protein. Some binding calls cover weakened binding; strength is not graded here.

Take “toll-like receptor-4 (TLR4) (from UniProt Q9QUK6 26-835)”: the binding entry is on record as “binds”.
